Results are given in words; binding and its absence hold for the method and conditions named.
Legend:
[1] = target: MFAP4_(C34S) (human) (UniProt P55083); experiment: SPR; Ca2+-depleted form (tetramer): MFAP4 or MFAP4_(C34S) treated with 5 mM EDTA, dialysed against TBS, amine-coupled on CM5; analytes dialysed against TBS, 5-100 µg/mL, running buffer TBS without Ca2+; both purified
[2] = target: MFAP4_(C34S) (human) (UniProt P55083); experiment: SPR; Ca2+ form (octamer): MFAP4 or MFAP4_(C34S) amine-coupled on CM5 (Biacore X), elastogenic proteins as analytes 5-100 µg/mL in TBS/Ca2+ (2 mM CaCl2); 1:1 Langmuir fit, KD is the average over five concentrations; both purified

Chains of the proteins cited; added tags and fusions are not shown. Lines headed by an entry give the natural chain unless they say otherwise; changes in a name come on top. A line that says so, or that is headed by a name, gives the form on record, which may keep a tag or linker. Residues count along the entry.
MFAP4_(C34S) (P55083, form named): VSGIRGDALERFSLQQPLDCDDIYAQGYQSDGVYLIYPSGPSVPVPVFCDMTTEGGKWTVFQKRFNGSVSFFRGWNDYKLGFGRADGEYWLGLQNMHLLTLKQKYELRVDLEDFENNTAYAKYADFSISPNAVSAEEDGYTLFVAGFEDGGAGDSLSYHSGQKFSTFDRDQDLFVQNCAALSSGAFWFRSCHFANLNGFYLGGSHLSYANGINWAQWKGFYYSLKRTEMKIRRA
UniProt Q9UBX5, residues 24-448: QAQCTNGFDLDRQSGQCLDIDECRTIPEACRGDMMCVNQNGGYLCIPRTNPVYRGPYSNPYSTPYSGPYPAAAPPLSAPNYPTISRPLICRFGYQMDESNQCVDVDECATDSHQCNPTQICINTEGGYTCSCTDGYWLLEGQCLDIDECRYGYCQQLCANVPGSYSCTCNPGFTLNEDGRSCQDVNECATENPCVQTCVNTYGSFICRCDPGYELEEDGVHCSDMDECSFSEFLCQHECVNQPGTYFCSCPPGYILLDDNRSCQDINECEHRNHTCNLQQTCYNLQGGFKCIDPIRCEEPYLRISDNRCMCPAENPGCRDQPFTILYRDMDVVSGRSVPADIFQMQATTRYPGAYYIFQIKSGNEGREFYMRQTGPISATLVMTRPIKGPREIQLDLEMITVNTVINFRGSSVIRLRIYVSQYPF

fibulin-5 (from UniProt Q9UBX5 24-448)
binding [1]: no binding (tested: 100 µg/mL) | binding [2]: no binding (tested: 100 µg/mL)
